Data on one molecule can be found in US20150064187A1.

Chains of the proteins cited; added tags and fusions are not shown. Residues count along the entry.
UniProt P07228, residues 25-803: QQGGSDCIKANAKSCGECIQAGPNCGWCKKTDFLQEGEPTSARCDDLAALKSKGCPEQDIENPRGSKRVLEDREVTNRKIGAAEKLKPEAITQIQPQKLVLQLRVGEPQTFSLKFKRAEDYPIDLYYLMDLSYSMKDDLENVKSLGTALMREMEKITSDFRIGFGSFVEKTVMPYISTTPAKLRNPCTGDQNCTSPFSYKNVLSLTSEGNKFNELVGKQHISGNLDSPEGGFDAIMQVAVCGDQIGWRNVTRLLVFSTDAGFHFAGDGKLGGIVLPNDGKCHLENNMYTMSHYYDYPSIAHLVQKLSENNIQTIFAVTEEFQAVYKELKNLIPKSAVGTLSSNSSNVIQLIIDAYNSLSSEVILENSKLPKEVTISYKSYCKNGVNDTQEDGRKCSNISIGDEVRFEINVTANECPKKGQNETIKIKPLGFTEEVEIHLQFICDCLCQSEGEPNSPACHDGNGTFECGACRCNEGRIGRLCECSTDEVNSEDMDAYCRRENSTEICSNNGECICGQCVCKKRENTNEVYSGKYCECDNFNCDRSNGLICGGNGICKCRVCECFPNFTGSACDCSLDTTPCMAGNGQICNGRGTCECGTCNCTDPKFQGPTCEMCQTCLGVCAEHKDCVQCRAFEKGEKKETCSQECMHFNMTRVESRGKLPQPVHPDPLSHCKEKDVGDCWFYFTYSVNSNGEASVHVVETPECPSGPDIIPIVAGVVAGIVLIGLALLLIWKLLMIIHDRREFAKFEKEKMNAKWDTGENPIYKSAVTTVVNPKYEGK

The target in this assay is chicken integrin β1 chain (chicken) (UniProt P07228). As to the kind of experiment: coimmunoprecipitation with Y9A2 from detergent lysate of the human α9-expressing chicken cell line.

Results are given in words; binding and its absence hold for the method and conditions named. Binding seen in cells or lysates may run through a third protein. Some entries that bind do so weakly or less than the wild type.

B1: human integrin α9 chain (expressed in a chicken cell line) (receptor, UniProt Q13797 30-1035, looked up)
chain: YNLDPQRPVHFQGPADSFFGYAVLEHFHDNTRWVLVGAPKADSKYSPSVKSPGAVFKCRVHTNPDRRCTELDMARGKNRGTSCGKTCREDRDDEWMGVSLARQPKADGRVLACAHRWKNIYYEADHILPHGFCYIIPSNLQAKGRTLIPCYEEYKKKYGEEHGSCQAGIAGFFTEELVVMGAPGSFYWAGTIKVLNLTDNTYLKLNDEVIMNRRYTYLGYAVTAGHFSHPSTIDVVGGAPQDKGIGKVYIFRADRRSGTLIKIFQASGKKMGSYFGSSLCAVDLNGDGLSDLLVGAPMFSEIRDEGQVTVYINRGNGALEEQLALTGDGAYNAHFGESIASLDDLDNDGFPDVAIGAPKEDDFAGAVYIYHGDAGGIVPQYSMKLSGQKINPVLRMFGQSISGGIDMDGNGYPDVTVGAFMSDSVVLLRARPVITVDVSIFLPGSINITAPQCHDGQQPVNCLNVTTCFSFHGKHVPGEIGLNYVLMADVAKKEKGQMPRVYFVLLGETMGQVTEKLQLTYMEETCRHYVAHVKRRVQDVISPIVFEAAYSLSEHVTGEEERELPPLTPVLRWKKGQKIAQKNQTVFERNCRSEDCAADLQLQGKLLLSSMDEKTLYLALGAVKNISLNISISNLGDDAYDANVSFNVSRELFFINMWQKEEMGISCELLESDFLKCSVGFPFMRSKSKYEFSVIFDTSHLSGEEEVLSFIVTAQSGNTERSESLHDNTLVLMVPLMHEVDTSITGIMSPTSFVYGESVDAANFIQLDDLECHFQPINITLQVYNTGPSTLPGSSVSISFPNRLSSGGAEMFHVQEMVVGQEKGNCSFQKNPTPCIIPQEQENIFHTIFAFFTKSGRKVLDCEKPGISCLTAHCNFSALAKEESRTIDIYMLLNTEILKKDSSSVIQFMSRAKVKVDPALRVVEIAHGNPEEVTVVFEALHNLEPRGYVVGWIIAISLLVGILIFLLLAVLLWKMGFFRRRYKEIIEAEKNRKENEDSWDWVQKNQ
As for B1, the binding entry is “binds”.
